Measured values taken from the supplement of paper PMC10849652.
This is one part of the list.

Sequences of proteins named here, by UniProt entry; tags and fusion partners are left off. A change or cut given only in a name is not applied to a line headed by its entry.
UniProt O60568: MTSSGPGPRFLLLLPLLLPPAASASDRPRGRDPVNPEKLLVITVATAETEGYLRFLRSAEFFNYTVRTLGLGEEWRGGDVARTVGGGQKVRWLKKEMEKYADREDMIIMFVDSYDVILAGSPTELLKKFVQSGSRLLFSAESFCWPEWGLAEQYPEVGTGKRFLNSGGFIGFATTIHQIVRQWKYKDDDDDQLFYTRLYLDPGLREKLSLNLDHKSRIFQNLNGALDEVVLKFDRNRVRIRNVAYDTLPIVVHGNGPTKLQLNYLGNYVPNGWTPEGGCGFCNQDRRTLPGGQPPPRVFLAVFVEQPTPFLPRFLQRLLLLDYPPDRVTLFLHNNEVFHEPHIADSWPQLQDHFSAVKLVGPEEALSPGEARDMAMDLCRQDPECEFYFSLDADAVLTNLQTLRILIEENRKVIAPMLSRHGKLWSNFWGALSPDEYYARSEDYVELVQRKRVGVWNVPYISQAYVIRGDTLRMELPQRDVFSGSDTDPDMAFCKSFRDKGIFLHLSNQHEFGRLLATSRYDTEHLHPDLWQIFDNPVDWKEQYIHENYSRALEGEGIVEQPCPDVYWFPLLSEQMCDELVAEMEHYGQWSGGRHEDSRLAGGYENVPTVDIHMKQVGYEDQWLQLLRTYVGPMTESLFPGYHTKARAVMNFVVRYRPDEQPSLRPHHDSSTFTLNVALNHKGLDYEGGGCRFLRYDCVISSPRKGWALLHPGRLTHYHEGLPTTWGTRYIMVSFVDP
UniProt Q9H1D9: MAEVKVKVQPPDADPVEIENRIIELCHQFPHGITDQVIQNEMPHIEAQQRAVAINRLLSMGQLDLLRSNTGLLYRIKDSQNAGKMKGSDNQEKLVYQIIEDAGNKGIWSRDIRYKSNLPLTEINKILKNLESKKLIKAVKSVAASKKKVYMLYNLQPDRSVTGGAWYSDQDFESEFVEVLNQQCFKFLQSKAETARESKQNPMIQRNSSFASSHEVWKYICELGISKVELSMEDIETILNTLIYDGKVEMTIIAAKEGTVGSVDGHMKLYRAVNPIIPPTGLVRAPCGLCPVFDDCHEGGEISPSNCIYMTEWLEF
UniProt P11086: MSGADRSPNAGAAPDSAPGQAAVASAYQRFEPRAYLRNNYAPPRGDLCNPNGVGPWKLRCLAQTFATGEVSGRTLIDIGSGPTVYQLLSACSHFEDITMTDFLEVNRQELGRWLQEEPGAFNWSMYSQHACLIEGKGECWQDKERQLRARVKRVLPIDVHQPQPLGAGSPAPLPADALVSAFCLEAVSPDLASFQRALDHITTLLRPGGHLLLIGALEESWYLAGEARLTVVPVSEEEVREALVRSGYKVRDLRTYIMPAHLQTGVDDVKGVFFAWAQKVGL
UniProt Q9Y2S7: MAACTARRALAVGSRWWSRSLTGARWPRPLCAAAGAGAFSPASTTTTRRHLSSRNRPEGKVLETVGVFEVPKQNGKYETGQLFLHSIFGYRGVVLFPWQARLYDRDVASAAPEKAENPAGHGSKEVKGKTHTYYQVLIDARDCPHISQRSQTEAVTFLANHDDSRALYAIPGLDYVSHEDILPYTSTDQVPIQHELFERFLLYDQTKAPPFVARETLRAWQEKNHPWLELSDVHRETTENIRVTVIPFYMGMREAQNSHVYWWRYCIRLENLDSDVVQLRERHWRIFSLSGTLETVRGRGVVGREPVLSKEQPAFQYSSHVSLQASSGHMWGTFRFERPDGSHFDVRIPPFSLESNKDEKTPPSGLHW
UniProt P49005: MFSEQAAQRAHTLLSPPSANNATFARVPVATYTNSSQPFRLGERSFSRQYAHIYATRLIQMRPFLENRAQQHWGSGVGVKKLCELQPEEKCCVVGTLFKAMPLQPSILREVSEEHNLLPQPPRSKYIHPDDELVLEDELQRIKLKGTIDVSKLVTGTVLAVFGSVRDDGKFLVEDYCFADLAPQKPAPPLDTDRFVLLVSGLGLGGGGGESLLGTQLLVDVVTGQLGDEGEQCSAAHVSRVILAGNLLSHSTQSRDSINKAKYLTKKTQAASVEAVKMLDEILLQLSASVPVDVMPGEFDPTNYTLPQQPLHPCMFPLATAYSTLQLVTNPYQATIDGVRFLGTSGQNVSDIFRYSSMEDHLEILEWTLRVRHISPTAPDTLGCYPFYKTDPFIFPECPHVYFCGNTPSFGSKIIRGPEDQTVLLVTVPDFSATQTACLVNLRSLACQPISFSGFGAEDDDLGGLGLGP
UniProt P54098: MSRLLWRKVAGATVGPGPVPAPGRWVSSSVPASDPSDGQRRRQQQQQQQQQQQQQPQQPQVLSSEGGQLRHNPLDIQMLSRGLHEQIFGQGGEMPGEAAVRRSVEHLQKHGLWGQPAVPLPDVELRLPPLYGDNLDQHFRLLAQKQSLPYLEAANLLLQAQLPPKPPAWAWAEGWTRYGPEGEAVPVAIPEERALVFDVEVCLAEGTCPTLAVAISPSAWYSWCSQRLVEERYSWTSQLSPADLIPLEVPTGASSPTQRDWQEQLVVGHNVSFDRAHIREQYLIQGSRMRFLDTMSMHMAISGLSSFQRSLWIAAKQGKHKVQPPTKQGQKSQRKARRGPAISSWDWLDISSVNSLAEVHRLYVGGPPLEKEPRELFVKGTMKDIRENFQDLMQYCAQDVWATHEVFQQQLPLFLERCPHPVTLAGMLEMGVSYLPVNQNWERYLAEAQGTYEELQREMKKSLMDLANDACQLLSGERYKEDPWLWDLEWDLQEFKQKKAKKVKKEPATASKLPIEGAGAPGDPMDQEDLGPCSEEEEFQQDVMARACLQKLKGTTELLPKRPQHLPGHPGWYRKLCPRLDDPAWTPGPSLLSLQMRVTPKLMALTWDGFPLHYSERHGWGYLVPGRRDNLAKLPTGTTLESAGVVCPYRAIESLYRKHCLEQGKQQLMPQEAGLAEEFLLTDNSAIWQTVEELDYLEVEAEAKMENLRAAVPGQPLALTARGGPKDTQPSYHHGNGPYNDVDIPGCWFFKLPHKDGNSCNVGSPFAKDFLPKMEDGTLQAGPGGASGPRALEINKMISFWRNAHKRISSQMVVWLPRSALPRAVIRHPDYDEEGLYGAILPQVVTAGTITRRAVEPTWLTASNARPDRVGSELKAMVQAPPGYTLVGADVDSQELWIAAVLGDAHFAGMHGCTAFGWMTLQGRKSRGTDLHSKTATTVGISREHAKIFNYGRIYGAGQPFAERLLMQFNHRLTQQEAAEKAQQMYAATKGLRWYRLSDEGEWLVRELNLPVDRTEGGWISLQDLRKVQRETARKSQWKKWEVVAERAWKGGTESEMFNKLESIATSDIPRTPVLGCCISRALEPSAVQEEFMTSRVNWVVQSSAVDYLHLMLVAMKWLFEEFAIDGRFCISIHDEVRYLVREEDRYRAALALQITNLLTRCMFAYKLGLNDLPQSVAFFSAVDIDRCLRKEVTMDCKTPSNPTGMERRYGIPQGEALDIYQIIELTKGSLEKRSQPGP
UniProt Q6P1K2: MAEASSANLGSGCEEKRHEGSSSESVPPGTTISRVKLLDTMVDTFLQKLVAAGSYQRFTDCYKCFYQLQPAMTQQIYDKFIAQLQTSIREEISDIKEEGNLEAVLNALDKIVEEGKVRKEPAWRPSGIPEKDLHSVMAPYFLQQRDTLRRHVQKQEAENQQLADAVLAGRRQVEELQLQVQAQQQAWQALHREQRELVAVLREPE
UniProt Q96CD2: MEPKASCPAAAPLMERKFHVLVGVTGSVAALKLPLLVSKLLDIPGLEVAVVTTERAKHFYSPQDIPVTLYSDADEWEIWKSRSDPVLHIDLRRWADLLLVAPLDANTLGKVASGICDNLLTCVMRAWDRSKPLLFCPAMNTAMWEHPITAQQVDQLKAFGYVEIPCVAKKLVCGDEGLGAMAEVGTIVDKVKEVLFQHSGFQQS

Legend:
Test in all cases: log2 fold change, soluble protein after heating vs DMSO (PISA); higher = thermal stabilisation; K562 lysate, 10 uM; active = over 0.2 and 3.5 SD of the protein, either way, in both replicates (recomputed)
[1] = compound: NCC(=O)Nc1ccc(-n2nc(C(F)(F)F)cc2-c2ccc3c(ccc4ccccc43)c2)cc1
Procedure, shortened: (§1)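 K562 pellets were dounce-homogenised in PBS pH 7.4 with 1 mM MgCl2, and the crude extract at 1 mg/mL protein was treated with 10 μM compound for 30 min. Aliquots were heated for 3 min across 48°C-58°C, pooled, and brought to 0.5% NP-40 at 4°C; soluble protein was the supernatant after 21,000xg for 90 min. Soluble protein was quantified by TMTpro 16plex LC-MS/MS with channel sums equalised, and reported as log2 fold change in thermal stability against DMSO controls, with values from duplicates.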

[2] = compound: O=C(CCCCCCC(=O)Nc1ccccc1)NO [vorinostat]
Procedure, shortened: as §1

[3] = compound: O=C(O)c1ccc2c(c1)nc(Nc1cccc(Cl)c1)c1ccncc12 [silmitasertib]
Procedure, shortened: as §1

[4] = compound: O=C1NC(=O)C(c2cnc3ccccn23)=C1c1cn2c3c(cc(F)cc13)CN(C(=O)N1CCCCC1)CC2
Procedure, shortened: as §1

[5] = compound: c1cn2cc(-c3ccc4cn[nH]c4c3)nc(Nc3ccc(N4CCOCC4)cc3)c2n1 [entospletinib]
Procedure, shortened: as §1

Measured: log2 fold change

PLOD3 (UniProt O60568)
inactive: [1] -0.019 | [2] 0.129 | [3] -0.004 | [4] -0.031 | [5] -0.002

POLR3F (UniProt Q9H1D9)
inactive: [1] -0.022 | [2] 0.058 | [3] 0.012 | [4] -0.037 | [5] -0.025

PNMT (UniProt P11086)
inactive: [1] 0.324 | [2] -0.121 | [3] -0.053 | [4] 0.372

POLDIP2 (UniProt Q9Y2S7)
inactive: [1] -0.021 | [2] 0.193 | [3] 0.026 | [4] -0.014 | [5] 0.016

POLD2 (UniProt P49005)
inactive: [1] 0.011 | [2] -0.124 | [3] -0.018 | [4] 0.028 | [5] -0.038

POLG (UniProt P54098)
inactive: [1] 0.081 | [2] 0.004 | [3] -0.018 | [4] 0.131 | [5] 0.019

PMF1 (UniProt Q6P1K2)
inactive: [1] 0.011 | [2] 0.001 | [3] -0.024 | [4] -0.024 | [5] -0.044

POLR2C (UniProt P19387)
inactive: [1] 0.025 | [2] -0.154 | [3] -0.025 | [4] 0.016 | [5] 0.021

PPCDC (UniProt Q96CD2)
inactive: [1] 0.001 | [2] -0.002 | [3] 0.071 | [4] -0.015 | [5] 0.002
